Laboratory results taken from the supplement of paper PMC12823440, “Inhibitors supercharge kinase turnover through native proteolytic circuits” (Nature, 2025).
Where a name gives a salt, the structure may show the parent alone. Some of the results follow. Hit calls seldom repeat between salt and free forms of one compound.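 Kinases, fused to nanoluciferase, were expressed in K562 cells; luminescence was measured every 4 h from 2 to 18 h as percent of control (DMSO = 100%, positive control = 0%). A time point is decreased if signal falls significantly (2 sigma). Hits were called by the authors by a rule that is not shown; the count of time points alone does not decide it.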

The chains behind the UniProt entries cited, without tags or fusion partners.
UniProt Q01974, whole entry: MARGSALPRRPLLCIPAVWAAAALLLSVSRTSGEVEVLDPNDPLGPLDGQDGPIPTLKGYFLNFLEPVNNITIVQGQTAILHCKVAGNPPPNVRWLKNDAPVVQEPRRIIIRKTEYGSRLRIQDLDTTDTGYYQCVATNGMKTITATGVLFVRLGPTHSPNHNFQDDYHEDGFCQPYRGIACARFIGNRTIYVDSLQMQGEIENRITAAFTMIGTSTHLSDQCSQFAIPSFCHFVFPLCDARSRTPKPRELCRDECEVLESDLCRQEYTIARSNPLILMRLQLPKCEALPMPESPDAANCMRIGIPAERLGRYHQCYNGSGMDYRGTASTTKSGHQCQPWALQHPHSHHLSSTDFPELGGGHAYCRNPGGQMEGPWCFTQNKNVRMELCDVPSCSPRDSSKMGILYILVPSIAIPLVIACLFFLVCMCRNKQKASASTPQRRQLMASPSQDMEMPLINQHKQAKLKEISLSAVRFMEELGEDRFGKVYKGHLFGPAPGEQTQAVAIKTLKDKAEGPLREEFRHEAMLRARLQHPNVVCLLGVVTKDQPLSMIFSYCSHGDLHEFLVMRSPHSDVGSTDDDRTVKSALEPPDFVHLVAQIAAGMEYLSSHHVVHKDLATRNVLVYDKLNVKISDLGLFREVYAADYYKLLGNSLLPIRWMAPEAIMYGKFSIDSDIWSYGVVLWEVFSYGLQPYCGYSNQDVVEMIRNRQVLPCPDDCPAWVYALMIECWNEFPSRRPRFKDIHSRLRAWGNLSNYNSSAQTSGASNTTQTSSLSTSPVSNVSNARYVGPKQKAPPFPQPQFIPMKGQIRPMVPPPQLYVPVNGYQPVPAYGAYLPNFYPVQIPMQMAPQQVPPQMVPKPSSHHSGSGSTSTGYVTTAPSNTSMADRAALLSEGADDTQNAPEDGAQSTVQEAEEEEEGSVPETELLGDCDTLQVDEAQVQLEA

Biological target: ROR2 (UniProt Q01974)
Assay: kinase-Nluc reporter destabilization hit call (1 = scored as downregulated) (binary); higher = compound decreases kinase abundance
Details: 2.5 µM; K562; 2-18 h

kinase-Nluc reporter destabilization hit call, inactive:
Cc1cccc(-c2[nH]c(CNc3ccccc3F)nc2-c2ccc3ncnn3c2)n1 [Vactosertib] 0
c1cc(-c2cnn3cc(-c4ccc(OCCN5CCCCC5)cc4)cnc23)ccn1 [Dorsomorphin (dihydrochloride)] 0
Oc1cccc(-c2nc(N3CCOCC3)c3oc4ncccc4c3n2)c1 [PI-103 (Hydrochloride)] 0
C=CC(=O)Nc1cc(Nc2nccc(-c3cn(C)c4ccccc34)n2)c(OC)cc1N(C)CCN(C)C [Osimertinib mesylate] 0
CNC(=O)c1cc(Oc2ccc(NC(=O)Nc3ccc(Cl)c(C(F)(F)F)c3)c(F)c2)ccn1 [Regorafenib (monohydrate)] 0
Cc1cccc(-c2[nH]c(CNc3ccccc3F)nc2-c2ccc3ncnn3c2)n1 [Vactosertib (Hydrochloride)] 0
COc1ccc(S(=O)(=O)Nc2ccccc2CN(C)C/C=C/c2ccc(Cl)cc2)cc1 [KN-92 (hydrochloride)] 0
CN(C)C(=O)c1cc2cnc(Nc3ccc(N4CCNCC4)cn3)nc2n1C1CCCC1 [Ribociclib hydrochloride] 0

Same assay, conditions: 10 µM; K562; 2-18 h

kinase-Nluc reporter destabilization hit call, inactive:
CNC(=O)c1ccc(Nc2ncc(C(F)(F)F)c(NCc3nccnc3N(C)S(C)(=O)=O)n2)cc1 [Defactinib (hydrochloride)] 0
C#Cc1cccc(Nc2ncnc3cc4c(cc23)OCCOCCOCCO4)c1 [Icotinib (Hydrochloride)] 0
CNC(=O)c1ccc(Nc2ncc(C(F)(F)F)c(NCc3nccnc3N(C)S(C)(=O)=O)n2)cc1 [Defactinib] 0
N#CCNC(=O)c1ccc(-c2ccnc(Nc3ccc(N4CCOCC4)cc3)n2)cc1 [Momelotinib sulfate] 0
N#CCC1(n2cc(-c3ncnc4[nH]ccc34)cn2)CN(C2CCN(C(=O)c3ccnc(C(F)(F)F)c3F)CC2)C1 [Itacitinib] 0
CC(=O)Nc1cccc(-n2c(=O)n(C3CC3)c(=O)c3c(Nc4ccc(I)cc4F)n(C)c(=O)c(C)c32)c1 [Trametinib] 0
C[C@H](CCC(=O)NCCS(=O)(=O)O)[C@H]1CC[C@H]2[C@@H]3[C@@H](O)C[C@@H]4C[C@H](O)CC[C@]4(C)[C@H]3CC[C@]12C [Tauroursodeoxycholate (sodium)] 0
Cc1cccc(/C=N/Nc2cc(N3CCOCC3)nc(OCCc3ccccn3)n2)c1 [Apilimod (mesylate)] 0
N#CCNC(=O)c1ccc(-c2ccnc(Nc3ccc(N4CCOCC4)cc3)n2)cc1 [Momelotinib] 0
C[S+]([O-])c1ccc(-c2nc(-c3ccc(F)cc3)c(-c3ccncc3)[nH]2)cc1 (centres undefined) 0
COc1cc2c(cc1OC)-c1c(C)c3ccc(OC)c(OC)c3c[n+]1CC2 [Dehydrocorydaline (chloride)] 0
CCCC(=O)Nc1ncnc2c1ncn2[C@@H]1O[C@@H]2COP(=O)(O)O[C@H]2[C@H]1OC(=O)CCC [Bucladesine (sodium)] 0
COc1ccnc(C[S+]([O-])c2nc3cc(-n4cccc4)ccc3[nH]2)c1C (centres undefined) [Ilaprazole] 0
COC(=O)[C@H](CC(C)C)NC(=O)c1ccc(NC[C@@H](N)CS)cc1-c1cccc2ccccc12 0
COc1ncc(F)cc1CNc1ccc(Cc2c[nH]c3ncc(C)cc23)c(F)n1 0
C#Cc1cccc(Nc2ncnc3cc(OCCOC)c(OCCO)cc23)c1 [Desmethyl Erlotinib] 0
Cn1ncc(Cl)c1-c1cc(C(=O)N[C@H](CN)Cc2cccc(F)c2)sc1Cl [Afuresertib] 0
O=C(c1ccc(F)c(F)c1Nc1ccc(I)cc1F)N1CC(O)([C@@H]2CCCCN2)C1 [Cobimetinib (hemifumarate)] 0
COc1cc(/C=C/C(=O)O)ccc1O [Ferulic acid (sodium)] 0
CNc1ncc2cc(-c3ccc(-c4cccc(C)n4)cc3Cl)c(=O)n(C[C@H]3OC[C@H](N)CO3)c2n1 0
COC(=O)[C@H](CC(C)C)NC(=O)c1ccc(NC[C@@H](N)CS)cc1-c1cccc2ccccc12 [GGTI298 (Trifluoroacetate)] 0
Nc1cncc(-c2cn3ccnc3c(Nc3ccc(N4CCN(C5COC5)CC4)cc3)n2)n1 [Lanraplenib (succinate)] 0
CN(C)C(=O)c1cc2cnc(Nc3ccc(N4CCNCC4)cn3)nc2n1C1CCCC1 [Ribociclib] 0
CC(C)NC[C@@H](C(=O)N1CCN(c2ncnc3c2[C@H](C)C[C@H]3O)CC1)c1ccc(Cl)cc1 [Ipatasertib] 0
COc1cc(/C=C/C(=O)O)ccc1O [Ferulic acid] 0
CN(C)C/C=C/C(=O)Nc1cc2c(Nc3ccc(F)c(Cl)c3)ncnc2cc1O[C@H]1CCOC1 [Afatinib] 0

Looked up one by one from the list above (two):
kinase-Nluc reporter destabilization hit call, inactive:
Nc1cncc(-c2cn3ccnc3c(Nc3ccc(N4CCN(C5COC5)CC4)cc3)n2)n1 [Lanraplenib (succinate)] 0
C#Cc1cccc(Nc2ncnc3cc4c(cc23)OCCOCCOCCO4)c1 [Icotinib (Hydrochloride)] 0
